Consider 42 sequences from publication PMC7819943, “Rice protein-binding microarrays: a tool to detect cis-acting elements near promoter regions in rice”.

Chains of the proteins cited; added tags and fusions are not shown.
UniProt Q0JBA9, entry or part of it: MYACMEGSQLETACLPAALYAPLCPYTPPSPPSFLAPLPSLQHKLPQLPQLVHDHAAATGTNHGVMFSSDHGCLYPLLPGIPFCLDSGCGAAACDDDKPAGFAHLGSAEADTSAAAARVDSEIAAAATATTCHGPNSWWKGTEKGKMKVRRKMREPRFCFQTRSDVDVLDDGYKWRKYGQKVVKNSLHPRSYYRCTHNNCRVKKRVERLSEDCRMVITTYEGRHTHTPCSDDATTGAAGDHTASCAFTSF

Some of the results follow.

This assay addresses OsWRKY34 (Oryza sativa, UniProt Q0JBA9 1-250). Put plainly: protein-binding microarray (RPBM); PBS, 2% BSA, 51.3 ng/ul salmon testes DNA, 50 uM zinc acetate, 200 nM TF, 25 C, 1 h; high values mean tight binding. As to conditions: protein: recombinant; tags: N-terminal polyhistidine and DsRed monomer fusion (pET32a); label: CyDye5-dUTP incorporated in the synthesized complementary strand; 3' TTTTT single-stranded linker to array surface; dsDNA, one strand shown. The gist of the method:
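Using Ni–NTA, transcription factors fused N-terminally to polyhistidine and DsRed were purified after expression in E. coli BL21-CodonPlus. These were incubated at 200 nM with a blocked, double-stranded custom Agilent array for 1 h at 25 °C in a buffer containing 50 µM zinc acetate, and the array was washed. The binding signal is per-feature fluorescence intensity (arbitrary units) on an Axon 4000B scanner.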
Take “TGTGTTATTGGTTTTGTCTTGATCTGTACTGGCTTGTCTACGGAGTCACCTAGTGCAG”: the binding signal is 9080 fluorescence intensity (a.u.).

Take “TATTATATGCCACATCTTAGCACAAGGTTGTTTTTGTTTTCGGAGTCACCTAGTGCAG”: the binding signal is 9420 fluorescence intensity (a.u.).

Turning to “ACACATTCGTTTTCCATCCTCTCGCGCTGGTCTCAGCCCCCGGAGTCACCTAGTGCAG”, the binding signal is 8810 fluorescence intensity (a.u.).

As to “GCTCTCCCTCCTCACGTCACGCGTGCCAAGTGCGATCCCCCGGAGTCACCTAGTGCAG”, the binding signal is 8200 fluorescence intensity (a.u.).

For “ATTCTTGATAGTACTAGTATTAGATTGTCATCGATATTTTCGGAGTCACCTAGTGCAG”, the binding signal was 8150 fluorescence intensity (a.u.).

For the sequence “AGTGAGTAGTATATTCTGTTTACTTCCAAGTTATGCTGACCGGAGTCACCTAGTGCAG”, the binding signal is 8900 fluorescence intensity (a.u.).

As to “TACTTCATACCTATACTTATCTCTAGTAATTTTTTCATGACGGAGTCACCTAGTGCAG”, the binding signal was 8390 fluorescence intensity (a.u.).

Take “ACACATATAAACTTTTAACTTTTCCGTCACATCGTTCCAACGGAGTCACCTAGTGCAG”: the binding signal is 8970 fluorescence intensity (a.u.).

Regarding “AATCCTCTGAAAATCCTATAACATTTCATCTCAAATTTGTCGGAGTCACCTAGTGCAG”, the binding signal is 8580 fluorescence intensity (a.u.).

For “GCACCTCAACTGCCCCTTGTTTCCTTATCAATCTAATAAACGGAGTCACCTAGTGCAG”, the binding signal is 11300 fluorescence intensity (a.u.).

As for “CTATTACATGTGGGACCCACCCGTCAGTTCTCTCTTCTCTCGGAGTCACCTAGTGCAG”, the binding signal is 8770 fluorescence intensity (a.u.).

For “GAGAGGGAGGGAGGGGATAAAGGAGAGAGAGAGGGAGGGTCGGAGTCACCTAGTGCAG”, the binding signal is 11900 fluorescence intensity (a.u.).

Consider “GTTCCTAATTGAAGTACCTCTTATGTTAACTTTTATTTGTCGGAGTCACCTAGTGCAG”, for which the binding signal was 8510 fluorescence intensity (a.u.).

As for “ATTCCTATATAGACACTGTACTCTACTTCTAATGTTCCTTCGGAGTCACCTAGTGCAG”, the binding signal is 8140 fluorescence intensity (a.u.).

“TTATATATGTCACGCTACTATTACATCTAGATCTTTTGCACGGAGTCACCTAGTGCAG”: the binding signal is 9000 fluorescence intensity (a.u.).

“ATAGTTGCAAACATGGTTCCTGTACACCCCAGTCGAGAAACGGAGTCACCTAGTGCAG”: the binding signal was 8170 fluorescence intensity (a.u.).

In the case of “TTCTTCTTGTCCTCCAAGCTCAGCTGTGCCACCCTAGCAACGGAGTCACCTAGTGCAG”, the binding signal was 10900 fluorescence intensity (a.u.).

Turning to “CTTATATTAGCCGCTACCCTTGTTTCTCAATGAATATTTACGGAGTCACCTAGTGCAG”, the binding signal was 8950 fluorescence intensity (a.u.).

With “CCAAACCATTAACACATGCATCCTGCATCCTATACCACTCCGGAGTCACCTAGTGCAG”, the binding signal was 8600 fluorescence intensity (a.u.).

“GCTCGCGCTGTTCCCGCCTCGCTGCCACCTGTCACCTCCTCGGAGTCACCTAGTGCAG”: the binding signal is 8460 fluorescence intensity (a.u.).

For the sequence “TTCCAACTTTACCTCTCGTTTTTCACGCGTGTGCTCCTGACGGAGTCACCTAGTGCAG”, the binding signal is 13300 fluorescence intensity (a.u.).

“GCCGGCTTCCTAATTTTGTTTTCTGCACGCTTTTAAAACTCGGAGTCACCTAGTGCAG”: the binding signal is 10100 fluorescence intensity (a.u.).

As to “TCATCCTGTATCTGGGACCGCATTGCTATTTACGGTTCCTCGGAGTCACCTAGTGCAG”, the binding signal is 8790 fluorescence intensity (a.u.).

Take “GTCCCACCCACCACCTCTCTCTCTCTCTCTCTCTCTCTCTCGGAGTCACCTAGTGCAG”: the binding signal is 9170 fluorescence intensity (a.u.).

Regarding “GCCTTCTGACTAATCACACTCCTTCACAGCCTAATCTTCCCGGAGTCACCTAGTGCAG”, the binding signal is 8240 fluorescence intensity (a.u.).

“ATGTTTTATGAGATGATTTGGTTGTGTTTCAGCTTTTTAACGGAGTCACCTAGTGCAG”: the binding signal was 8690 fluorescence intensity (a.u.).

With “CATTAATTTTGGCATATACTCTAGCTGTCATGTTTCATTCCGGAGTCACCTAGTGCAG”, the binding signal was 13400 fluorescence intensity (a.u.).

On to “CCATCCACTCGCCGCGCCAAACACCACAAGTCCTCGCCACCGGAGTCACCTAGTGCAG”, for which the binding signal was 9680 fluorescence intensity (a.u.).

With “CTATTCGAGCCCTTTTTCCTATTCTTTTGTATATAGTTCTCGGAGTCACCTAGTGCAG”, the binding signal is 11300 fluorescence intensity (a.u.).

As to “ATCCTCTCGGACGCAGGTTATCTCACTATTTCATTTTTTTCGGAGTCACCTAGTGCAG”, the binding signal is 8240 fluorescence intensity (a.u.).

With “AAGAAAACACGCTTCTCCCTTCTCCTCTTTTCCCTTTTTTCGGAGTCACCTAGTGCAG”, the binding signal is 9150 fluorescence intensity (a.u.).

In the case of “GGGCTCATGATTGGGGATATGGCGGTGTTGGCGAAGAATGCGGAGTCACCTAGTGCAG”, the binding signal was 11500 fluorescence intensity (a.u.).

As to “GTACACCGTAGCTCTATCTCCTCCACGCAAAACCCACCGGCGGAGTCACCTAGTGCAG”, the binding signal is 8230 fluorescence intensity (a.u.).

Take “TACACGCAATCTATGTAATCAGTTATTTTTTCGTTTATATCGGAGTCACCTAGTGCAG”: the binding signal is 8200 fluorescence intensity (a.u.).

On to “GGCGCTACAAAGTGCTTCACATCTTTGCCTCGTTCGTCCTCGGAGTCACCTAGTGCAG”, for which the binding signal is 9110 fluorescence intensity (a.u.).

As for “AAATTATGTTTGATCACTCAGCAATTTCTGTTTCGTTTATCGGAGTCACCTAGTGCAG”, the binding signal is 9330 fluorescence intensity (a.u.).

With “TTGCAATCCTCTGTTTTACACTTGTATTCCAGTCAGAATCCGGAGTCACCTAGTGCAG”, the binding signal is 8240 fluorescence intensity (a.u.).

In the case of “GTTGTGGGTGTTCGATATTTTGATCTCCATCGGACGATCGCGGAGTCACCTAGTGCAG”, the binding signal was 10600 fluorescence intensity (a.u.).

Regarding “AACTCCTGGCCTGTGTTGGGCTACAGTTTTGGTTCCTAGTCGGAGTCACCTAGTGCAG”, the binding signal was 8720 fluorescence intensity (a.u.).

For “CCCACCGCCGCCGCCGCCGCCTCCATCGCCGCCGCCGACACGGAGTCACCTAGTGCAG”, the binding signal was 8640 fluorescence intensity (a.u.).

As for “TTCGATCCAGAGCTCTCTGCCTCTCTAGCTAGCTTCAATTCGGAGTCACCTAGTGCAG”, the binding signal is 9760 fluorescence intensity (a.u.).

For the sequence “TACACTCTCCTCACCGATGATCCATCGCCGTCGCCATTGCCGGAGTCACCTAGTGCAG”, the binding signal is 8650 fluorescence intensity (a.u.).
